PubChem BioAssay AID1259425 – University of Nebraska Medical Center, 2018
In all, the deposit lists about 14,000 reagents; this is a part drawn at random. Further read-outs or replicates are left out here. Not given: the time to read-out.

- Test: 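Find knockdowns that reproduce the gene expression pattern seen when KSR1 is lost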 (primary screen)
- System: HCT116 human colon cancer cells
- Reagents: siRNA pool against human genes, 50 nM siRNA
- Measurement: 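mRNA of six signature genes measured together by branched-DNA assay after 50 nM siRNA pool, blank removed, divided by geometric mean of two housekeeping genes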
- Scale: BNIP3L mRNA: higher = more BNIP3L transcript after knockdown; NDRG1 mRNA: higher = more NDRG1 transcript after knockdown; BNIP3 mRNA: higher = more BNIP3 transcript after knockdown

| Gene | BNIP3L mRNA, set 1 | NDRG1 mRNA, set 1 | BNIP3 mRNA, set 1 |
| --- | --- | --- | --- |
| CHPT1 (GeneID 56994) | 0.0501 | 0.061 | 0.201 |
| KRT9 (GeneID 3857) | 0.135 | 0.183 | 0.627 |
| FBXO5 (GeneID 26271) | 0.0899 | 0.103 | 0.213 |
| HSPA9 (GeneID 3313) | 0.172 | 0.0697 | 0.258 |
| ANO3 (GeneID 63982) | 0.0777 | 0.3 | 0.202 |
| HSD17B14 (GeneID 51171) | 0.172 | 0.154 | 0.442 |
| NPTN (GeneID 27020) | 0.0589 | 0.139 | 0.301 |
| NDST3 (GeneID 9348) | 0.247 | 0.3 | 0.547 |
| DNAAF9 (GeneID 25943) | 0.189 | 0.191 | 0.458 |
| ZNF239 (GeneID 8187) | 0.104 | 0.349 | 0.281 |
| ZNF577 (GeneID 84765) | 0.2 | 0.995 | 0.338 |
| CXXC1 (GeneID 30827) | 0.124 | 0.185 | 0.305 |
| MLPH (GeneID 79083) | 0.101 | 0.194 | 0.318 |
| EFNA1 (GeneID 1942) | 0.101 | 0.18 | 0.307 |
| MYO6 (GeneID 4646) | 0.0607 | 0.166 | 0.193 |

Reformatted: 4 of the entries above
{"Gene": "DNAAF9 (GeneID 25943)", "BNIP3L mRNA, set 1": 0.189, "NDRG1 mRNA, set 1": 0.191, "BNIP3 mRNA, set 1": 0.458}
{"Gene": "ZNF239 (GeneID 8187)", "BNIP3L mRNA, set 1": 0.104, "NDRG1 mRNA, set 1": 0.349, "BNIP3 mRNA, set 1": 0.281}
{"Gene": "ZNF577 (GeneID 84765)", "BNIP3L mRNA, set 1": 0.2, "NDRG1 mRNA, set 1": 0.995, "BNIP3 mRNA, set 1": 0.338}
{"Gene": "CXXC1 (GeneID 30827)", "BNIP3L mRNA, set 1": 0.124, "NDRG1 mRNA, set 1": 0.185, "BNIP3 mRNA, set 1": 0.305}

The results go on.
| Gene | BNIP3L mRNA, set 1 | NDRG1 mRNA, set 1 | BNIP3 mRNA, set 1 |
| --- | --- | --- | --- |
| ZNF557 (GeneID 79230) | 0.182 | 0.128 | 0.325 |
| ABITRAM (GeneID 54942) | 0.0798 | 0.111 | 0.228 |
| PTGS2 (GeneID 5743) | 0.0724 | 0.111 | 0.212 |
| SUV39H2 (GeneID 79723) | 0.0804 | 0.787 | 0.187 |
| DLG1 (GeneID 1739) | 0.124 | 0.192 | 0.183 |
| EBLN2 (GeneID 55096) | 0.075 | 0.171 | 0.246 |
| RANGAP1 (GeneID 5905) | 0.077 | 0.108 | 0.245 |
| RBM39 (GeneID 9584) | 0.0762 | 0.455 | 0.449 |
